Experimental data as given in paper PMC5438708.
Results are given in words; binding and its absence hold for the method and conditions named. In cells and extracts the contact can be indirect. Some binding calls cover weakened binding; strength is not graded here.

B1: α2,3-sialyltransferase type I (ST3GalI), human (enzyme, UniProt Q11201 1-340)
chain: MVTLRKRTLKVLTFLVLFIFLTSFFLNYSHTMVATTWFPKQMVLELSENLKRLIKHRPCTCTHCIGQRKLSAWFDERFNQTMQPLLTAQNALLEDDTYRWWLRLQREKKPNNLNDTIKELFRVVPGNVDPMLEKRSVGCRRCAVVGNSGNLRESSYGPEIDSHDFVLRMNKAPTAGFEADVGTKTTHHLVYPESFRELGDNVSMILVPFKTIDLEWVVSAITTGTISHTYIPVPAKIRVKQDKILIYHPAFIKYVFDNWLQGHGRYPSTGILSVIFSMHVCDEVDLYGFGADSKGNWHHYWENNPSAGAFRKTGVHDADFESNVTATLASINKIRIFKGR

Experiments:
[1] = target: T1, α2,3-sialyltransferase type I (ST3GalI), human (human (endogenous in ES2)) (UniProt Q11201); test: co-IP; endogenous proteins from ES2 cell lysates (scramble and ST3GalI shRNA cells); Pierce Crosslink IP kit, antibody (Erbitux for EGFR) cross-linked to protein A/G agarose; lysis buffer 0.025 M Tris, 0.15 M NaCl, 1 mM EDTA, 1% NP40, 5% glycerol; overnight at 4°C; western blot
T1 sequence: B1 chain

[2] = target: Epidermal growth factor receptor (EGFR), human (human (endogenous in ES2)) (UniProt P00533); test: as above

Row | Molecule | binding [1] | binding [2]
1 | Epidermal growth factor receptor (EGFR), human (from UniProt P00533 25-1210) | binds | 
2 | B1 |  | binds
